Measured values taken from PubChem BioAssay AID485298 (National Center for Advancing Translational Sciences (NCATS), 2010).
In all, about 320,000 compounds went through this assay and about 740 (0.23%) were called active. Inconclusive means that the source gave no clear call. Such entries were picked first, then a sample of the others. The call rests on the fitted dose curve; in most records, active means well fitted activation curve with a large enough effect; inconclusive means small, poorly fitted or top-dose-only effect; inactive means no such curve, though single readings can be large or run the other way. Potencies of inconclusive entries are doubtful fits and often do not repeat.

experiment: qHTS Assay for Small Molecule Inhibitors of Mitochondrial Division or Activators of Mitochondrial Fusion; further: nearly all actives have a fitted effect of over 45% in size; on growth rescue (activation): % of control where 0% means no effect; details: S. cerevisiae fusion-defective mutant growth rescue, CellTiterGlo 48 h; growth rescue (activation): at 46.1 µM (top of the series) unless noted
In short: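 Temperature-sensitive fusion-defective S. cerevisiae (e.g. fzo1-1, mgm1-5) were grown with compound in YPEG medium (3% ethanol, 3% glycerol) for 48 hours at 37C. Growth rescue was measured as viability by CellTiterGlo luminescence after 10 minutes at ambient.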
Potency means the concentration at half of the fitted maximal effect.

SMILES	growth rescue (activation)	Potency
O=C(CNC(=O)c1ccccc1Cl)Nc1ccncc1	inactive: -3.14%	–
S=c1[nH]nc(COc2ccccc2)n1/N=C/c1ccc(Cl)cc1Cl	inactive: -6.28%	–
CCc1cccc(CC)c1NC(=S)NCCc1ccc(O)c(O)c1	inactive: 3.97%	–
COc1ccc(N(C)S(=O)(=O)c2cccc(C(=O)NC3CCCC(C)C3C)c2)cc1 (stereo unspecified)	–	inconclusive: 17.8 µM [activator, single point]
N#Cc1nc(Cc2cccc3ccccc23)oc1NCc1ccc(F)cc1	inactive: 26.4%	–
Cc1ccc(-n2nnnc2SCC(=O)c2cc(C)n(-c3cc(C)on3)c2C)c(C)c1	–	inconclusive: 12.6 µM [activator, partial curve]
C=C(C)COc1ccc(-c2ncncc2-c2ccccc2)c(O)c1	–	inconclusive: 6.31 µM [activator, partial curve]
Cc1ccc(OCc2ccc(C(=O)N3CCCC3)o2)cc1C	–	inconclusive: 7.08 µM [activator, full curve, poor fit]
CSC1=NCCN1CCOc1ccccc1	–	inconclusive: 35.5 µM [activator, single point]
CCOC(=O)c1cnc(-n2nc(C)cc2C)nc1Oc1ccccc1F	–	inconclusive: 14.1 µM [activator, single point]
Cc1ccccc1NC(=O)CSc1n[nH]c(-c2ccccn2)n1	inactive: -8.09%	–
CCC1C(=O)CC(c2ccc([N+](=O)[O-])cc2)NC1c1ccc([N+](=O)[O-])cc1 (stereo unspecified)	–	inconclusive: 11.2 µM [activator, partial curve, poor fit]
CCOC(=O)c1sc2nc3c(SCCC(=O)O)cc(C(=O)c4cc(OC)ccc4O)cn3c(=O)c2c1C	–	inconclusive: 22.4 µM [activator, single point]
COc1cccc(C(=O)Oc2ccccc2/C=C\C(=O)c2cc3ccccc3o2)c1	inactive: 1.3%	–
Cc1cc(NC(=O)COc2ccccc2)ccc1Cl	–	inconclusive: 35.5 µM [activator, single point]
C/C(=C\c1ccc(C(=O)O)cc1)c1ccc2c(c1)C(C)(C)CCC2(C)C	–	inconclusive: 13 µM [activator, partial curve]
COc1ccc([C@H]2CC(=O)C=C(c3cc(F)ccc3F)C2)cc1OC	–	inconclusive: 15.8 µM [activator, single point]
Oc1oc(-c2ccccc2)nc1C=Nc1cccc2ccccc12	–	active: 11.2 µM
CCOC(=O)N1CCN(C(=O)c2cccc(N3C(=O)NC4CC3(C)Oc3ccc(Cl)cc34)c2)CC1 (stereo unspecified)	inactive: 1.71%	–
Clc1ccc(Nc2c3c(nc4ncnn24)CCC3)cc1	inactive: -2.97%	–
O=C(N/N=C1\C(=O)c2cccc3cccc1c23)c1ccc(O)cc1	inactive: 0.17%	–
O=C(Nc1ccccc1C(=O)O)c1cccc(N2C(=O)c3ccccc3C2=O)c1	inactive: -1.84%	–
CC(CCc1ccc(O)cc1)NCc1ccc(Br)cc1 (stereo unspecified)	inactive: 3.53%	–

Record cards (already shown). Values in the order: growth rescue (activation) | Potency
O=C(N/N=C1\C(=O)c2cccc3cccc1c23)c1ccc(O)cc1 is listed with inactive: 0.17% | –
COc1ccc(N(C)S(=O)(=O)c2cccc(C(=O)NC3CCCC(C)C3C)c2)cc1 (stereo unspecified) is listed with – | inconclusive: 17.8 µM [activator, single point]
C=C(C)COc1ccc(-c2ncncc2-c2ccccc2)c(O)c1 is listed with – | inconclusive: 6.31 µM [activator, partial curve]
COc1ccc([C@H]2CC(=O)C=C(c3cc(F)ccc3F)C2)cc1OC is listed with – | inconclusive: 15.8 µM [activator, single point]

(next part)

SMILES	growth rescue (activation)	Potency
Cc1noc(C)c1COC(=O)c1ccc(N(C)C)cc1	–	inconclusive: 4.47 µM [activator, single point]
c1ccc(NCc2nc3ccccc3n2CCOc2ccccc2)cc1	–	inconclusive: 22.4 µM [activator, single point]
CCC1CCc2c(sc(NC(=O)c3ccoc3C)c2C(N)=O)C1 (stereo unspecified)	–	inconclusive: 14.1 µM [activator, partial curve]
O=C(O)c1ccccc1C(=O)N1CCc2c([nH]c3ccccc23)C1C(F)(F)F (stereo unspecified)	–	inconclusive: 5.62 µM [activator, single point]
COc1ccc(CCNC(=O)c2sc3ccccc3c2Cl)cc1OC	–	inconclusive: 35.5 µM [activator, single point]
COc1ccc(C(=O)NCCn2ccc3ccccc32)c(OC)c1	inactive: 7.57%	–
Cc1ccc(C(=O)Nc2ccc(S(=O)(=O)N3CCc4ccccc43)cc2)o1	–	inconclusive: 12.6 µM [activator, partial curve]
COc1ccc2nc(N3CCN(C(=O)c4ccc([N+](=O)[O-])o4)CC3)sc2c1	–	inconclusive: 11.2 µM [activator, partial curve]
Cn1cc(C(CO)Cc2ccccc2)c2ccccc21 (stereo unspecified)	inactive: 11%	–
COC(=O)[C@@]1(Cc2ccc(OC)cc2)[C@H]2c3cc(C(=O)N(C)C)n(CCc4ccc(OC)c(Br)c4)c3C[C@H]2CN1C(=O)c1ccccc1	–	inconclusive: 35.5 µM [activator, single point]
O=C(c1ccccc1)N1N=C(c2ccccc2)CC1c1ccccc1O (stereo unspecified)	inactive: -0.731%	–
O=C(c1cn(-c2ccccc2)nc1-c1cccc([N+](=O)[O-])c1)N1CCCCC1	–	inconclusive: 15.8 µM [activator, partial curve]
Cc1cc(N/N=C/c2ccccc2O)nc(-c2ccccc2O)n1	–	inconclusive: 35.5 µM [activator, single point]
O=C(Nc1cccc(O)c1)c1ccccc1	inactive: -0.796%	–
O=C(Nc1cccnc1)C1(F)C(F)(F)C(F)(F)C(F)(F)C(F)(F)C1(F)F	inactive: 0.411%	–
O=C(Oc1cccc2cccnc12)c1cccc([N+](=O)[O-])c1	inactive: -2.4%	–
N=c1c(S(=O)(=O)c2ccccc2)cc2c(=O)n3ccccc3nc2n1CC1CCCO1 (stereo unspecified)	inactive: 1.63%	–
Cc1ccccc1OCc1nc(C#N)c(N2CCCC2)o1	–	inconclusive: 35.5 µM [activator, single point]
Cc1coc2c(C)c3oc(=O)c(CCC(=O)N4CCC(C(=O)NCCCC(=O)O)(c5ccccc5)CC4)c(C)c3cc12	–	inconclusive: 0.562 µM [activator, full curve, poor fit]
CCc1c(C)sc2nc(C(C)C)nc(SCC(=O)N3CCc4ccccc4C3)c12	–	inconclusive: 25.1 µM [activator, single point]
CC[C@@H](C)C(NC(=O)OC(C)(C)C)c1cn([C@@H](Cc2cc3ccccc3[nH]2)C(=O)N2CCN(C(=O)OC(C)(C)C)CC2)nn1 (stereo partly specified)	inactive: -3.28%	–
CCC(C(=O)NN1C(=O)c2ccccc2C1=O)c1ccccc1 (stereo unspecified)	–	inconclusive: 22.4 µM [activator, single point]
O=C(/C=C/c1cccs1)Nc1sc2c(c1C(=O)O)CCCC2	–	inconclusive: 2.82 µM [activator, partial curve]
